Among all 2,400 compounds or so, about 20 (0.8%) were called active.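 Rule for the calls: active = AC50 no more than ten times the highest tested concentration, or full inhibition at every dose giving a flat fit (cut at about 30 µM in these data); inconclusive = flat fit with activity between 30% and 70%, or poor-quality invalid fit; inactive = AC50 more than ten times the top tested dose.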 This is one part of the list.
Test: luciferase-based ADP detection interference – biochemical, luminescence, cell-free, homogeneous, artefact control for GSK-3a inhibitor project, dose response (AID 463205);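 note: kinase-free counter-screen against the ADP-Glo detection reagents only; potency is for inhibitors that reduce the luminescence signal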
Conditions: Cell-free ADP-Glo detection reagents, 5 uM ADP

AC50, inactive:
COc1cccc(/C=C2\Oc3cc(OCC(=O)N4CCC[C@H]4C(=O)O)ccc3C2=O)c1 > 30 µM
Cc1noc(C)c1COc1ccc(C(=O)OCC(=O)Nc2c(C)n(C)n(-c3ccccc3)c2=O)cc1 > 30 µM
CCOc1cccc(-c2c(C(=O)N/N=C/c3ccoc3)nnn2-c2nonc2N)c1 > 30 µM
CCOC(=O)N1CCC(N2CCN(S(=O)(=O)c3ccc(C)cc3)CC2)CC1 > 30 µM
CCCc1cc(NCc2ccccn2)n2c(nc3ccccc32)c1C#N > 30 µM
NC1=NC(=O)/C(=C\c2ccc(-c3ccc(Cl)cc3)o2)S1 > 30 µM
CCOC(=O)c1nnn(-c2nonc2N)c1-c1ccc(Br)cc1 > 30 µM
Cc1nc(NC(=O)c2ccc(Br)o2)sc1C > 30 µM
COc1ccccc1NC(=O)CSc1nnc(-c2ccccc2)o1 > 30 µM
CC1Cc2ccccc2N1c1ncnc2nc[nH]c12 (stereo not drawn) > 30 µM
CCCc1nnc(NC(=O)CCN2C(=O)c3ccccc3C2=O)s1 > 30 µM
Clc1ccc(N/N=C/c2ccncc2)cc1Cl > 30 µM
O=Cc1cc(N=Nc2ccc(S(=O)(=O)O)cc2)ccc1O > 30 µM
O=Nc1c(-c2c(O)[nH]c3cc(Br)ccc23)[nH]c2ccccc12 > 30 µM
CC(=O)c1cc(-c2ccc(F)cc2)n(CCC(=O)Nc2cc(C)[nH]n2)c1C > 30 µM
O=C(Nc1ccccc1N1CCOCC1)c1cnccn1 > 30 µM
CCn1c(=O)[nH]c(=O)c2c(N)c(C(=O)c3ccccc3OC)sc21 > 30 µM
Cc1cc2nc(-c3cccnc3SCC(=O)NC(C)C)[nH]c2cc1C > 30 µM
Cc1cc(C(=O)CN(Cc2ccc(F)cc2)S(=O)(=O)c2ccc3c(c2)OCCO3)c(C)n1C > 30 µM
CCOC(=O)c1nc(NCc2cccnc2)c2ccccc2n1 > 30 µM
COc1cccc(/C=N/n2cncn2)c1OCC#N > 30 µM
Cc1ccc(Cn2cc(/C=N/Nc3ccc([N+](=O)[O-])cn3)c3ccccc32)cc1 > 30 µM
Cc1ccnc(NC(=O)C(C)N2C(=O)c3ccccc3S2(=O)=O)c1 (stereo not drawn) > 30 µM
COc1cc(/C(C)=N/NC(=O)c2nnn(-c3nonc3N)c2-c2cccs2)ccc1O > 30 µM
C[C@H](CO)N1C[C@H](C)[C@@H](CN(C)S(=O)(=O)c2cccs2)Oc2c(NS(=O)(=O)c3ccc(F)cc3)cccc2C1=O > 30 µM
C[C@H](CO)N1C[C@H](C)[C@@H](CN(C)S(=O)(=O)c2ccccc2)Oc2c(NS(=O)(=O)c3ccc(F)cc3)cccc2C1=O > 30 µM
COc1ccc(NC(=O)CSc2nnc(-c3cccc(O)c3)o2)cc1 > 30 µM
CC1=NN(c2nc(-c3ccc(Cl)cc3)cs2)C(=O)C1 > 30 µM
CCc1ccc(C2CC(c3ccccc3Cl)Nc3nc(N)nn32)cc1 (stereo not drawn) > 30 µM
CCOc1cccc(-c2c(C(=O)N/N=C(\C)c3cccnc3)nnn2-c2nonc2N)c1 > 30 µM
NS(=O)(=O)c1ccc(Nc2nc(-c3cccnc3)cs2)cc1 > 30 µM
Cc1cc(=O)[nH]c(SCC(=O)O)c1C#N > 30 µM
C=CCNC(=S)N1CCN(c2cccc(C(F)(F)F)c2)CC1 > 30 µM
COc1ccccc1C(=O)NNC(=O)c1cccc(Br)c1 > 30 µM
COc1ccc(COC(=O)C2=C(C)NC(=O)NC2c2ccc(F)cc2)cc1 (stereo not drawn) > 30 µM
CCOc1ccc(Cn2nnc(C(=O)Nc3cc(OC)cc(OC)c3)c2N)cc1 > 30 µM
NC(=O)Cn1cc(/C=N\NS(=O)(=O)c2cccc([N+](=O)[O-])c2)c2ccccc21 > 30 µM
COc1cc(NC(=O)c2cc([N+](=O)[O-])ccc2NC(=O)CNC2CCCCC2C)cc(OC)c1 (stereo not drawn) > 30 µM
N#Cc1c2ccc(O)cc2n2ccccc12 > 30 µM
C/C(=N\NC(=O)CSc1nc(C)[nH]c1[N+](=O)[O-])c1ccc(F)cc1 > 30 µM
Nc1cc(C(F)(F)F)ccc1C(=O)O > 30 µM
COc1ccc(-c2cc(C(F)(F)F)nc(SCC(=O)NCc3ccco3)n2)cc1OC > 30 µM
O=c1c2ccccc2oc2ccc(NCCCn3ccnc3)cc12 > 30 µM
O=C(O)c1ccc(N=Nc2c(O)[nH]c3ccc(Br)cc23)cc1 > 30 µM
Cc1ccc(-c2cn3cccnc3n2)cc1NC(=O)c1c(-c2ccccc2Cl)noc1C > 30 µM
Cc1nc(-c2ccncc2)nc(NCCNc2ccc(C(F)(F)F)cn2)c1Cl > 30 µM
FC(F)(F)c1cnc(N/N=C/c2ccncc2)c(Cl)c1 > 30 µM
Fc1ccccc1/C=N/Nc1ncnc2ccccc12 > 30 µM
CCOC(=O)CSc1nc(C)[nH]c1[N+](=O)[O-] > 30 µM
Cc1nc(NCC2CCCO2)nc2c1C(=O)CC(C)C2 (stereo not drawn) > 30 µM
CCOC(=O)c1cnc2c(C)c(Cl)ccc2c1N1CCN(CC)CC1 > 30 µM
CCCc1cc(C(N)=O)c(NC(C)=O)s1 > 30 µM
Cc1noc(C)c1CSc1nnc(-c2ccccc2)o1 > 30 µM
CCCNC(=O)NC(C)C12CC3CC(CC(C3)C1)C2 (stereo not drawn) > 30 µM
COc1cccc(/C=c2\s/c(=C\C(=O)C(C)(C)C)[nH]c2=O)c1 > 30 µM
CCc1c(C)c(C#N)c2nc3ccccc3n2c1NCc1ccccn1 > 30 µM
CCOC(=O)C1CCN(c2c(C(=O)c3ccccc3)cnc3ccc(Cl)cc23)CC1 > 30 µM
COc1ccc(Nc2nc(Cl)c(C=O)s2)cc1 > 30 µM
COc1cccc(C(=O)NCC(=O)OCC(=O)c2ccccc2)c1 > 30 µM
Cc1cc(=O)[nH]c2c(C)c(N)ccc12 > 30 µM
O=C(O)Cn1c(=O)c2c3c(sc2n(Cc2ccccc2)c1=O)CCCC3 > 30 µM
COC(=O)c1cnn(C(=O)c2cc(OC)ccc2Br)c1N > 30 µM
CCC(C)c1ccc(NC(=S)NCc2cccs2)cc1 (stereo not drawn) > 30 µM
COc1cc(/C=N/O)ccc1OCc1ccc([N+](=O)[O-])cc1 > 30 µM
COc1cc(/C=N\NC(=O)c2sc(N)nc2C)cc(OC)c1OC > 30 µM
O=c1c(O)c(-c2cc(O)c(O)c(O)c2)oc2cc(O)cc(O)c12 > 30 µM
COc1ccc(Nc2sc(C(=O)c3ccc(Cl)cc3)c(N)c2C(=O)Nc2ccccc2OC)cc1 > 30 µM
COc1ccc(-c2cc(=O)c3c(O)cc(O)cc3o2)cc1 > 30 µM
O=c1c(O)cccc2cc(O)c(O)c(O)c12 > 30 µM
COc1ccc(C(=O)c2sc3nc(-c4ccc(OC)cc4)ccc3c2N)cc1 > 30 µM
Cc1oc2c(Cl)c(Cl)c(O)c(CN(C)C)c2c1C(=O)c1ccc(Cl)cc1 > 30 µM
Cc1cc(C)c(S(=O)(=O)Nc2ccnc(-c3cccnc3)n2)c(C)c1 > 30 µM
CCc1ccc(N2CC(C(=O)Nc3nccs3)CC2=O)cc1 (stereo not drawn) > 30 µM
CS(=O)(=O)N1CCN(c2ccccc2NC(=O)c2ccco2)CC1 > 30 µM
NC(=O)c1sc2nc3c(c(-c4ccccc4)c2c1N)CCC3 > 30 µM
CC1CCc2c(sc3ncnc(NCCCOC(C)C)c23)C1 (stereo not drawn) > 30 µM
O=C(Cn1c(NCCO)nc2ccccc21)c1ccc([N+](=O)[O-])cc1 > 30 µM
CC(C)c1ccc(C2CC(=O)N3CN(Cc4ccco4)CSC3=C2C#N)cc1 (stereo not drawn) > 30 µM
CCOC(=O)c1c(C)c[nH]c1C > 30 µM
CC1(C)Cc2nc3sc4c(SCC(=O)O)ncnc4c3cc2CO1 > 30 µM
O=C1Nc2ccccc2C1(O)c1ccccc1O (stereo not drawn) > 30 µM
COc1ccc(CNC(=O)c2cc(COc3c(F)cccc3F)on2)cc1OC > 30 µM
CCCCOC(=O)C1=C(C)Nc2ncnn2C1c1cccc(OC)c1 (stereo not drawn) > 30 µM
CCCc1cc(C(N)=O)c(NC(=O)C2CCCO2)s1 (stereo not drawn) > 30 µM
Nc1nc(N)nc(-c2cc(O)ccc2O)n1 > 30 µM
Clc1cccc(/C=N/Nc2ncnc3ccccc23)c1 > 30 µM
COc1ccc(CCn2cnc(=O)c(C#N)c2C)cc1OC > 30 µM
COCc1nnc(NC(=O)CCN2C(=O)c3ccccc3C2=O)s1 > 30 µM
Cc1cccc(N2CCN(C(=O)c3cc4c(=O)[nH]c5ccccc5c4n3C)CC2)c1C > 30 µM
COc1ccc(-c2cncnc2-c2ccc(OC)cc2O)cc1 > 30 µM
COc1ccccc1N1C(=O)C2C(c3ccc(F)cc3)NN(C(=O)c3ccc(C)cc3)C2C1=O (stereo not drawn) > 30 µM
NS(=O)(=O)c1ccc(NC(=O)CSc2nnc(-c3ccc(O)cc3)o2)cc1 > 30 µM
CCCCN(CCCC)S(=O)(=O)c1ccc2oc(C(=O)N3CCOCC3)c(C)c2c1 > 30 µM

Two consecutive compounds out of the list so far, quoted:
AC50, inactive:
Clc1ccc(N/N=C/c2ccncc2)cc1Cl > 30 µM
O=Cc1cc(N=Nc2ccc(S(=O)(=O)O)cc2)ccc1O > 30 µM

A draw from above in order of heavy-atom count, ascending.
AC50, inactive:
Cc1noc(C)c1CSc1nnc(-c2ccccc2)o1 > 30 µM
COc1cccc(/C=c2\s/c(=C\C(=O)C(C)(C)C)[nH]c2=O)c1 > 30 µM
Cc1cc(C)c(S(=O)(=O)Nc2ccnc(-c3cccnc3)n2)c(C)c1 > 30 µM
COc1cccc(/C=C2\Oc3cc(OCC(=O)N4CCC[C@H]4C(=O)O)ccc3C2=O)c1 > 30 µM

Source: PubChem BioAssay AID463205 (Broad Institute, 2010)
